Reference: paper PMC5865166, “MultiBacMam Bimolecular Fluorescence Complementation (BiFC) tool-kit identifies new small-molecule inhibitors of the CDK5-p25 protein-protein interaction (PPI)” (Scientific Reports, 2018)
Results are given in words; binding and its absence hold for the method and conditions named. In cells and extracts the contact can be indirect. Some results given as binding are weak or reduced against the parent protein; the word gives no strength.

Protein sequences, listed by entry. Tags and fused reporters are not part of them. Residues count along the entry.
UniProt Q15078, residues 99-307: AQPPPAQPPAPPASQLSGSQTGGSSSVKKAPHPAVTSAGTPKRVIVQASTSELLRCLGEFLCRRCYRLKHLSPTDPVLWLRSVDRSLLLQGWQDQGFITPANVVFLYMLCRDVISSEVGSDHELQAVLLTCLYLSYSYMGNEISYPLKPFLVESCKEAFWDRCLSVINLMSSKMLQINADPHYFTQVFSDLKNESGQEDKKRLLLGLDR

Columns and labels:
[1] = biological target: VN-CDK5(D144N) (UniProt Q00535); assay: split reporter; Venus BiFC; plasmid-based transfection of U2OS cells
[2] = biological target: VN-CDK5(D144N) (UniProt Q00535); assay: split reporter; Venus BiFC; U2OS, HeLa and Cos7 cells transduced with MultiBacMam baculovirus at MOI 25 to 500; fixed, Hoechst 33342 stained, imaged

Substance: VC-p25 (from UniProt Q15078 99-307) (domain or fragment)
- binding [1]: binds
- binding [2]: binds
